Measurements as given in the supplement of paper PMC12823440, “Inhibitors supercharge kinase turnover through native proteolytic circuits” (Nature, 2025).
Counter-ions that a name gives are not always drawn. The list shows a part of the results. Hit calls seldom repeat between salt and free forms of one compound.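 Kinases were expressed as nanoluciferase fusions in K562 cells and luminescence was read every 4 h between 2 and 18 h as percent of control, DMSO set to 100% and a positive control to 0%. A time point counts as decreased when the signal drops significantly (2 sigma). The hit call is the authors' own, does not follow from the count of time points alone, and its rule is not shown.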

Amino acid sequences for entries named in this document (tags omitted). A change or cut given only in a name is not applied to a line headed by its entry.
UniProt O96013: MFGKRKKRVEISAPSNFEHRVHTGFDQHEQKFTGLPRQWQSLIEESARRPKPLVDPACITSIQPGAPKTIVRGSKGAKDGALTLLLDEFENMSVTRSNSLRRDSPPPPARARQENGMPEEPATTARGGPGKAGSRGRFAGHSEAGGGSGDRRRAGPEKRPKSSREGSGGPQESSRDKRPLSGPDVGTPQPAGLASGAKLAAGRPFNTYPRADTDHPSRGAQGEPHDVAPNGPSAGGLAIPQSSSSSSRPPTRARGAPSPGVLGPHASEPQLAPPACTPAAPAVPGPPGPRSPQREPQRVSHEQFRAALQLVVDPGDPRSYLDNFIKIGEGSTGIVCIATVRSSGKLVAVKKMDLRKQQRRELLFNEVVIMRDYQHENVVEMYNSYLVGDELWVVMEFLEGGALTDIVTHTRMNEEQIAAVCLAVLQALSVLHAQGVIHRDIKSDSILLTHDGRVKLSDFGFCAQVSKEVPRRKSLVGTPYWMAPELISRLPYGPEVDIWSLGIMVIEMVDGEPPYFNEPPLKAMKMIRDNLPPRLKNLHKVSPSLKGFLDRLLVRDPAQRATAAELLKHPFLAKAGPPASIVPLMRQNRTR
UniProt Q96KB5: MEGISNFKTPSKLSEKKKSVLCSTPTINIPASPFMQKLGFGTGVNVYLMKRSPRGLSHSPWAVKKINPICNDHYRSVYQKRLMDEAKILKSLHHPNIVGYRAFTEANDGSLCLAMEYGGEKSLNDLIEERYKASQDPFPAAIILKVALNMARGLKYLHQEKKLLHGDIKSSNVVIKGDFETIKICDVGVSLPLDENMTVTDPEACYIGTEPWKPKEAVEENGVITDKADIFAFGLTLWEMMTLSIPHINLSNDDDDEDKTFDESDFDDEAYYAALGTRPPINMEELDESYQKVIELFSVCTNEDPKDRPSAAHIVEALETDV
UniProt P09619, whole entry: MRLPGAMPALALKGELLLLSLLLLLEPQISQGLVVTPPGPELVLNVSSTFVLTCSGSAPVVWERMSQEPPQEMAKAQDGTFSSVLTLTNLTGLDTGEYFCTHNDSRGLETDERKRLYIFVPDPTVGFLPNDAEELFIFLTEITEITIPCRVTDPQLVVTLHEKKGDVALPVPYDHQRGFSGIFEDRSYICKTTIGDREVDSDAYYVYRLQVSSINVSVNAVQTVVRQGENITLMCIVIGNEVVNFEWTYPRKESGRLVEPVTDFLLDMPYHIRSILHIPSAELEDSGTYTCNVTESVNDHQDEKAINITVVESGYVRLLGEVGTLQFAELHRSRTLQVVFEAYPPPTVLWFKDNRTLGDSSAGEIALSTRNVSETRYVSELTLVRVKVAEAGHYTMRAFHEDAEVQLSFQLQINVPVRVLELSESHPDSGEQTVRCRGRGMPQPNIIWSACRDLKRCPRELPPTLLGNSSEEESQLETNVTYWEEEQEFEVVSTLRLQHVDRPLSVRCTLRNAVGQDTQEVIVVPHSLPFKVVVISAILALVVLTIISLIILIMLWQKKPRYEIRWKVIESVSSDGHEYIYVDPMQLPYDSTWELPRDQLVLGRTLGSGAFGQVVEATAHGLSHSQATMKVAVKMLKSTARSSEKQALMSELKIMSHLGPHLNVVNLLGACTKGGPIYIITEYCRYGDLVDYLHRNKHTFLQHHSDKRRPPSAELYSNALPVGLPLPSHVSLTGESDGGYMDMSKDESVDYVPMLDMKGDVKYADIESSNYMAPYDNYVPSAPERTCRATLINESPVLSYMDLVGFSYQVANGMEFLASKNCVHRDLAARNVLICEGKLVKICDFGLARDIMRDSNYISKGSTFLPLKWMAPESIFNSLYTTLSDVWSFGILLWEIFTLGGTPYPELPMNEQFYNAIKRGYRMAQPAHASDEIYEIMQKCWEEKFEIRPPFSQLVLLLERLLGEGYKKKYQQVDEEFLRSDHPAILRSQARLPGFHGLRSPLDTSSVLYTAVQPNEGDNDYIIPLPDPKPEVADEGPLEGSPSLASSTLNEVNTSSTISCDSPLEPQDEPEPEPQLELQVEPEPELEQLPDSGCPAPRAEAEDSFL
UniProt Q15118, whole entry, looked up: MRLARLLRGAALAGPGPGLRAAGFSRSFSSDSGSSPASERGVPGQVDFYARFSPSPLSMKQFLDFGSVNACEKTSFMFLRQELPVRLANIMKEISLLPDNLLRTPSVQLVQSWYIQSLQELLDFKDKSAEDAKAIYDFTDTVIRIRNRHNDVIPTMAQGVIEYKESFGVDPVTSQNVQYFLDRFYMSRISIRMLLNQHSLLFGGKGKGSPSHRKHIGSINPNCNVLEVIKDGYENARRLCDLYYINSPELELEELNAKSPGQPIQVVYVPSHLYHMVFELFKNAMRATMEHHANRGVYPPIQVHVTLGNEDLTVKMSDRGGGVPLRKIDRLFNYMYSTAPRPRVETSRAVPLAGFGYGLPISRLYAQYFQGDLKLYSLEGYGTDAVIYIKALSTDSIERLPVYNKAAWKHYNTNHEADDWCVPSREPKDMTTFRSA
UniProt P42356, whole entry, looked up: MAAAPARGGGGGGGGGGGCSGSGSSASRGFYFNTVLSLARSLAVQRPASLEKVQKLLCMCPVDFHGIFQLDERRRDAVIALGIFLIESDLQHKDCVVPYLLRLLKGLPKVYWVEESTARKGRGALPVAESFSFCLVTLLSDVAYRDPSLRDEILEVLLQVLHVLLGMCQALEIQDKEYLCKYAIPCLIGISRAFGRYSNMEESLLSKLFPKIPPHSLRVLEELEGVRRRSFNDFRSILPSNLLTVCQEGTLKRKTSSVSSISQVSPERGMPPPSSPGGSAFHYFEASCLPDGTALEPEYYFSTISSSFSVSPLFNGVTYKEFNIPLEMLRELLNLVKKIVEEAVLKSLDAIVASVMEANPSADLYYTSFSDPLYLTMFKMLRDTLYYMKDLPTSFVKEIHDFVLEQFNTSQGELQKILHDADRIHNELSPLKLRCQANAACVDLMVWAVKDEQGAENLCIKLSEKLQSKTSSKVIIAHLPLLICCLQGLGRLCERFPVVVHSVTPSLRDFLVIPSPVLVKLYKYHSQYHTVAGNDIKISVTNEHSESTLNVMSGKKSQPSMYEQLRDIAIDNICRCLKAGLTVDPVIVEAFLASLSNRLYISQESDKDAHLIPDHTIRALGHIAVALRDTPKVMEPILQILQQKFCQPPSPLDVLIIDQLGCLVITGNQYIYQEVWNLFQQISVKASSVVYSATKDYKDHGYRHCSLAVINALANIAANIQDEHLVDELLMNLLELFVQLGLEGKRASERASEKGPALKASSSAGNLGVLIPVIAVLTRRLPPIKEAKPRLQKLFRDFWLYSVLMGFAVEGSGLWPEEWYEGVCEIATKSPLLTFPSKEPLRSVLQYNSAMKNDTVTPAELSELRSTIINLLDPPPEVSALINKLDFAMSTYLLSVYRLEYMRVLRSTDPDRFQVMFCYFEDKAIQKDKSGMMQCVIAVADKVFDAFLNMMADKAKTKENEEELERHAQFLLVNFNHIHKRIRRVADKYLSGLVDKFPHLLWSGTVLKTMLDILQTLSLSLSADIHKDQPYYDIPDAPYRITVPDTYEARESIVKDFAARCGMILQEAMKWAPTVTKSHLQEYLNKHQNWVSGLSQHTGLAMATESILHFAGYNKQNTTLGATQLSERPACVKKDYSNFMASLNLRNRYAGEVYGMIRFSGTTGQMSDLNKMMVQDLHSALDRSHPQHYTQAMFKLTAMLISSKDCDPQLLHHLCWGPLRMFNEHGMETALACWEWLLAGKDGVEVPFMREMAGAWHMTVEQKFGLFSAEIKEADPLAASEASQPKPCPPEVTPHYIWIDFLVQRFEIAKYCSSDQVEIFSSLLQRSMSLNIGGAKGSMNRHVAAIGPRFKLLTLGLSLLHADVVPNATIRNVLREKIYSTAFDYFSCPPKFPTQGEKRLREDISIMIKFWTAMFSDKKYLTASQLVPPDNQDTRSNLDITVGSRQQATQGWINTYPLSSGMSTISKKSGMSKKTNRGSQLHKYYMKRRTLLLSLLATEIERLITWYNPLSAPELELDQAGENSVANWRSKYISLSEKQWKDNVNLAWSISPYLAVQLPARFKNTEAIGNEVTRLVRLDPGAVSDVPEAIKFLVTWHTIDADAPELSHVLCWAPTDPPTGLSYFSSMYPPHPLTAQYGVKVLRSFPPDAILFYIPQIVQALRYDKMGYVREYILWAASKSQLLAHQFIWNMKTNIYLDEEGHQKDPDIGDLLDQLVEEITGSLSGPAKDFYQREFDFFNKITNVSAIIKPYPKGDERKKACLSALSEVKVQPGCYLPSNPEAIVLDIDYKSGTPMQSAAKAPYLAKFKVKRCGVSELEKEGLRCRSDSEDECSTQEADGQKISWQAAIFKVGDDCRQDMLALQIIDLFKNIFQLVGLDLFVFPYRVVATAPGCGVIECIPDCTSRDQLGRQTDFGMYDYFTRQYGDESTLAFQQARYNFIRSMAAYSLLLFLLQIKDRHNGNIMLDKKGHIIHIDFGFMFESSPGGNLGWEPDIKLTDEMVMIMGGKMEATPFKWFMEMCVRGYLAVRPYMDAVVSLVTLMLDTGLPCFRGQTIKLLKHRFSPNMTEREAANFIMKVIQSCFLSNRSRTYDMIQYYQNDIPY
UniProt Q9UBF8: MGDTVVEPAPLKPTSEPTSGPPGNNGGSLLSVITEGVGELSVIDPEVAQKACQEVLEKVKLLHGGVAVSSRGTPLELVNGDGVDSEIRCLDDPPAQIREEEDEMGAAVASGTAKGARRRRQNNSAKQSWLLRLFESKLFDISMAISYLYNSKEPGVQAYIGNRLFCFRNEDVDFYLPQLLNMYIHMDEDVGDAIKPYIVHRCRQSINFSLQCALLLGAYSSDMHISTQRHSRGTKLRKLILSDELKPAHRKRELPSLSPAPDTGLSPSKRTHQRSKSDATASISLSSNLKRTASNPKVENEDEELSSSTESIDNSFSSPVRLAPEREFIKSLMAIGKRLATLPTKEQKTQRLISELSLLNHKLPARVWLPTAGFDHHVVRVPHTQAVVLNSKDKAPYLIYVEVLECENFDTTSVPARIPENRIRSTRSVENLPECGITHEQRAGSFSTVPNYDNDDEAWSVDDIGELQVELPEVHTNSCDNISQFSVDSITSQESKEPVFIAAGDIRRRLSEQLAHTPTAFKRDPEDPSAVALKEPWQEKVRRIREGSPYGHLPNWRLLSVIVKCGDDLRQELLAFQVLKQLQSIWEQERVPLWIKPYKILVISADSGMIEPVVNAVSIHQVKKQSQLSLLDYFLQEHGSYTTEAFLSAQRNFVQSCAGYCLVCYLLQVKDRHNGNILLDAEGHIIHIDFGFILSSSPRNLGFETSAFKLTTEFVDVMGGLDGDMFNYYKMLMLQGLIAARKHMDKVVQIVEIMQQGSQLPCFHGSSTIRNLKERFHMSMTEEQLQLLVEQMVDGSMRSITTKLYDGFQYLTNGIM
UniProt P53350, whole entry: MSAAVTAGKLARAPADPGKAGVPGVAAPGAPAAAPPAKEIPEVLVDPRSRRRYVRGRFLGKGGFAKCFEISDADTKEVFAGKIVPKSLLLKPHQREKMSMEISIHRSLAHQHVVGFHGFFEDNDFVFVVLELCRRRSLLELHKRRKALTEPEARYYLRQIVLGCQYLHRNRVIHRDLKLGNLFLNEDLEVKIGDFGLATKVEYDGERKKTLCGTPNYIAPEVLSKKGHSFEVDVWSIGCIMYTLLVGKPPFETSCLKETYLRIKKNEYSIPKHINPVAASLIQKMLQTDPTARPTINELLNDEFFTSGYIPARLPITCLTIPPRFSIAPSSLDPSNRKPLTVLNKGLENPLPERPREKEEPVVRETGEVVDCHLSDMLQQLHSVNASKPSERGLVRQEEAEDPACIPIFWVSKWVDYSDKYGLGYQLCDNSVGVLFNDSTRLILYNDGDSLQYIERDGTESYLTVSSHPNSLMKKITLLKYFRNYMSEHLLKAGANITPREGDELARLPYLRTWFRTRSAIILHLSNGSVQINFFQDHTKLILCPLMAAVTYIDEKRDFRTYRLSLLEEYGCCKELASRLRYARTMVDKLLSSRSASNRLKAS
UniProt Q13131: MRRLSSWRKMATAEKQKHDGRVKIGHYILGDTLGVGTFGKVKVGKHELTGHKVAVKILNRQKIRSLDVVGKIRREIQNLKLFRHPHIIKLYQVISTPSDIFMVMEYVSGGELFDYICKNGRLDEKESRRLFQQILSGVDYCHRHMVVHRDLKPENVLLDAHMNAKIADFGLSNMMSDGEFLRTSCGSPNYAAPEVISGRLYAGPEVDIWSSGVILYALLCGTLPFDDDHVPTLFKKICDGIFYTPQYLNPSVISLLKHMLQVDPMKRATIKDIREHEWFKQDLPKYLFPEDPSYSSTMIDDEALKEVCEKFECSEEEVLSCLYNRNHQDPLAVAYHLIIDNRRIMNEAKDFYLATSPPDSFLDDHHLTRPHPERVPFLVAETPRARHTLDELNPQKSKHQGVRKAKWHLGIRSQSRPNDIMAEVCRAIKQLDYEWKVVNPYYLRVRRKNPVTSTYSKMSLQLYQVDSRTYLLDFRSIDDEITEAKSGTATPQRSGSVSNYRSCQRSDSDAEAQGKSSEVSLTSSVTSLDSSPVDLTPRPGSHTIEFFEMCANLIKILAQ

Experiments:
Test in all cases: number of time points (of 5) at which kinase-Nluc abundance scored as decreased, DMSO-normalised (count); higher = more persistent destabilization
Conditions in all cases: K562; 2-18 h
[1] = molecular target: NTRK3 (UniProt Q16288)
[2] = molecular target: PAK4 (UniProt O96013)
[3] = molecular target: PBK (UniProt Q96KB5)
[4] = molecular target: PDGFRB (UniProt P09619)
[5] = molecular target: PDK1 (UniProt Q15118)
[6] = molecular target: PDPK1 (UniProt O15530)
[7] = molecular target: PIK4CA (UniProt P42356)
[8] = molecular target: PIK4CB (UniProt Q9UBF8)
[9] = molecular target: PLK1 (UniProt P53350)
[10] = molecular target: PRKAA1 (UniProt Q13131)

Measured: number of time points

Cc1nc(NC(=O)NCCc2nnn(CCF)n2)sc1-c1ccc(S(C)(=O)=O)c(F)c1 (10 µM)
0: all assays above

CC(C)N(C)c1nc2cc(C(=O)O)ccc2nc1-c1ccc(F)cc1 (10 µM)
0: all assays above

CCCNC(=O)c1cn2ncnc(Nc3cc(C(=O)NC4CC4)ccc3C)c2c1C (10 µM)
0: all assays above

O=c1nc(N2CCOCC2)oc2c(-c3cccc4c3sc3ccccc34)cccc12 (10 µM)
0: all assays above

Sorted by count of non-hydrogen atoms (largest number first): 3 of the compounds above.
Cc1nc(NC(=O)NCCc2nnn(CCF)n2)sc1-c1ccc(S(C)(=O)=O)c(F)c1 (10 µM)
0: all assays above

CCCNC(=O)c1cn2ncnc(Nc3cc(C(=O)NC4CC4)ccc3C)c2c1C (10 µM)
0: all assays above

CC(C)N(C)c1nc2cc(C(=O)O)ccc2nc1-c1ccc(F)cc1 (10 µM)
0: all assays above

Next results follow:

CN(C)C(=O)c1ccc(S(=O)(=O)c2ccc(NC(=O)[C@@](C)(O)C(F)(F)F)c(Cl)c2)cc1 (10 µM)
1: [6]
0: all other assays above

Cn1cc(-c2ccc(F)c(C(F)(F)F)c2)nc1C1CCN(c2ncnc3[nH]ncc23)CC1 (10 µM)
0: all assays above

Fc1c(Br)cccc1Nc1ncnc2cc3c(cc12)OCCO3 (2.5 µM)
1: [4] | [5]
0: all other assays above

O=C1NC(=O)/C(=C/c2ccc(-c3ccc(F)cc3O)o2)S1 (10 µM)
0: all assays above

Cc1ccc(-c2nn(C(C)(C)CNC(=O)c3ccncc3)c3ncnc(N)c23)cc1 (2.5 µM)
0: all assays above

CN1CCN(CCCNc2ncc(Cl)c(-c3cc4c(C(=O)NC5CC5)cccc4s3)n2)CC1 (10 µM)
0: all assays above

CCCCNC(=N)NC(=N)N [Buformin (hydrochloride)] (2.5 µM)
0: all assays above

N#C/C(=C(/N)Sc1ccc(N)cc1)c1ccccc1C(F)(F)F (10 µM)
0: all assays above

Cc1cc(Nc2nc(N[C@@H](C)c3ncc(F)cn3)ncc2Cl)[nH]n1 (10 µM)
0: all assays above

COc1ccc2c(=O)c(-c3ccccc3)coc2c1 [7-Methoxyisoflavone] (10 µM)
3: [1]
0: all other assays above
